In article PMC13586520:
These are yes or no findings as the source states them, for the method shown. Binding seen in cells or lysates may run through a third protein. A yes stands for co-enrichment or nearness to the bait. Other partners may have been found. For some of these results: A no says only that the protein was not detected with the bait. Values belong to the molecule of their own block, whether it stands above or below them.

Chains of the proteins cited; added tags and fusions are not shown. Residues count along the entry.
UniProt P08238: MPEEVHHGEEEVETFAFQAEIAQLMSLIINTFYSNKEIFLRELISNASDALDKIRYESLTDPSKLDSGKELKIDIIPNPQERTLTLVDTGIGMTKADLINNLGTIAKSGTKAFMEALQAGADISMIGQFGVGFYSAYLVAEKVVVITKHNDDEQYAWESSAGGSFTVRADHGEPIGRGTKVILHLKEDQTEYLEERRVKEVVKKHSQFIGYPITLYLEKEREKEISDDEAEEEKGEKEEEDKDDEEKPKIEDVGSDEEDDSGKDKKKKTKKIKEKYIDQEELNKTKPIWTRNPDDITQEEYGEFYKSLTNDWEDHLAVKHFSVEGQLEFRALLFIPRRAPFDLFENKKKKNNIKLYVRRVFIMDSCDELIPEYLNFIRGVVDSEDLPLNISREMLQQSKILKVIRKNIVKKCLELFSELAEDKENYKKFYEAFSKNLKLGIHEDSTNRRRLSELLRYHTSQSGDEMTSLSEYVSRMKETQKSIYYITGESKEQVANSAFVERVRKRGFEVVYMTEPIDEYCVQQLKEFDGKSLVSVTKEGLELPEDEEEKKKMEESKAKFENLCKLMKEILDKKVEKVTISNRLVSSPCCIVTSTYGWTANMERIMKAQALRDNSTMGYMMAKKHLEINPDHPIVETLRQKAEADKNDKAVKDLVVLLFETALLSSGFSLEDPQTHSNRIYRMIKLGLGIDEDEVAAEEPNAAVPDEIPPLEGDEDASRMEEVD
UniProt P40939, residues 37-763: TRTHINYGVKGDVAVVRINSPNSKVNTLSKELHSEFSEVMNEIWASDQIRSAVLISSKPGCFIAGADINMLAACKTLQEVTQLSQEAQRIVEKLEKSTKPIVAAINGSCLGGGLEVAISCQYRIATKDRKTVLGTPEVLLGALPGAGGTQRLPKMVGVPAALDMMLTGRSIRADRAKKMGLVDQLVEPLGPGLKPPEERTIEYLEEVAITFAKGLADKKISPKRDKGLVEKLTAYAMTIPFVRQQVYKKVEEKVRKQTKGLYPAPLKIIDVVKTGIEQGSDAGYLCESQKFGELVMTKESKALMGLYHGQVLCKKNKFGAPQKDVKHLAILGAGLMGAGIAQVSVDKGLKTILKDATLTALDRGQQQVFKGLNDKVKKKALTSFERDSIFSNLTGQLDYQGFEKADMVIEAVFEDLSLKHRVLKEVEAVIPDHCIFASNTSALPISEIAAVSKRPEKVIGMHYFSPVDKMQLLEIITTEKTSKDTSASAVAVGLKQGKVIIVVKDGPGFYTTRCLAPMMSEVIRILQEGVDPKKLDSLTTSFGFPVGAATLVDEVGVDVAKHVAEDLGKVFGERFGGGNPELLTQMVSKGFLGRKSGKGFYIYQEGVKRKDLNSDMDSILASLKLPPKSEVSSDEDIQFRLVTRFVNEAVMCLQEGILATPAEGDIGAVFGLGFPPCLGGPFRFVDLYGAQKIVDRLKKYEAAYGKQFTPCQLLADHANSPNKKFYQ
UniProt Q02127: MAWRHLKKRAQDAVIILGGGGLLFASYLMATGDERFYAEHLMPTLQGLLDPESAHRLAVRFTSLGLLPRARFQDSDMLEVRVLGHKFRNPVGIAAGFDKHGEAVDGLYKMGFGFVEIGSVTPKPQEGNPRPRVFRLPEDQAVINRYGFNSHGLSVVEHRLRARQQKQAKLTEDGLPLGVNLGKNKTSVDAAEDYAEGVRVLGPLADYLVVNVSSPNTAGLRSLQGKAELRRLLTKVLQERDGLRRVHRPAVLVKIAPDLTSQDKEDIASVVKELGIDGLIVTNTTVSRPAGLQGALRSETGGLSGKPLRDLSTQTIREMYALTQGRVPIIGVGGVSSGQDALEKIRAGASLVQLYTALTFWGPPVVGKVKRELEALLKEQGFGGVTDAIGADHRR

Experiments:
[1] = molecular target: Hsp90α (human (endogenous in HEK293)) (UniProt P07900); assay: affinity purification with mass spectrometry; endogenous Hsp90α or Hsp90β immunoprecipitated (antibody overnight at 4 °C, Protein G agarose) from mitochondria of WT HEK293 cells; IgG IP as negative control; only MitoCarta 3.0 proteins analysed; n = 2 biological replicates; no protease treatment of mitochondria
[2] = molecular target: Hsp90β (human (endogenous in HEK293)) (UniProt P08238); assay: as above
[3] = molecular target: Hsp90α (human (endogenous in HEK293)) (UniProt P07900); assay: affinity purification with mass spectrometry; endogenous Hsp90α or Hsp90β immunoprecipitated from mitochondria of WT and TRAP1 KO HEK293 cells, interactors compared; IgG IP as negative control; n = 3 biological replicates
[4] = molecular target: T1, tumor necrosis factor receptor-associated protein 1 (TRAP1) (human (endogenous in HEK293)) (UniProt Q12931); assay: affinity purification with mass spectrometry; endogenous TRAP1 immunoprecipitated from WT, Hsp90α KO and Hsp90β KO HEK293 cells, interactors compared; IgG IP as negative control
T1 sequence: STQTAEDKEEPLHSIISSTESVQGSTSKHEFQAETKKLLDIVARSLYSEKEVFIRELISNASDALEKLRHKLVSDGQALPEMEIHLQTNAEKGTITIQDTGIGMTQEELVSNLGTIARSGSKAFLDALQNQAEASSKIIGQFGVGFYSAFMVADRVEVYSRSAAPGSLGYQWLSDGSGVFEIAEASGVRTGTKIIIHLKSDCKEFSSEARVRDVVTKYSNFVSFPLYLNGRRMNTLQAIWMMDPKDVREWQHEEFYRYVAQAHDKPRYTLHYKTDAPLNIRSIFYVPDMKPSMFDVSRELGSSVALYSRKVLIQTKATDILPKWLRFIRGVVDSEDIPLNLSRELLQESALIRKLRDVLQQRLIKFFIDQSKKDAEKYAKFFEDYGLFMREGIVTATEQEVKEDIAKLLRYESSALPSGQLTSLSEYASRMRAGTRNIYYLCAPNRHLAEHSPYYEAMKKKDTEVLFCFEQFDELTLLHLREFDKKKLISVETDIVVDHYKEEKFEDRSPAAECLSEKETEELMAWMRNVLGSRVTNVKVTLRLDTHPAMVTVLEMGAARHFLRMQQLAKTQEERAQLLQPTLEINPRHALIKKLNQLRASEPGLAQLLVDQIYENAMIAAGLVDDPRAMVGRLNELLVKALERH

binding [1]: no binding
binding [2]: binds
Molecule: NDUFB1 (from UniProt O75438 1-58)

binding [1]: binds
binding [2]: binds
Molecule: hydroxyacyl-CoA dehydrogenase, α-subunit (HADHA) (from UniProt P40939 37-763)

binding [3]: binds
Molecule: DHODH (from UniProt Q02127 1-395) (enzyme)

binding [1]: no binding
binding [2]: binds
Molecule: NDUFA7 (from UniProt O95182 1-113)

binding [1]: no binding
binding [2]: no binding
B1: aldehyde dehydrogenase 1A1 (ALDH1A1) (enzyme, UniProt P00352 1-501)
chain: MSSSGTPDLPVLLTDLKIQYTKIFINNEWHDSVSGKKFPVFNPATEEELCQVEEGDKEDVDKAVKAARQAFQIGSPWRTMDASERGRLLYKLADLIERDRLLLATMESMNGGKLYSNAYLNDLAGCIKTLRYCAGWADKIQGRTIPIDGNFFTYTRHEPIGVCGQIIPWNFPLVMLIWKIGPALSCGNTVVVKPAEQTPLTALHVASLIKEAGFPPGVVNIVPGYGPTAGAAISSHMDIDKVAFTGSTEVGKLIKEAAGKSNLKRVTLELGGKSPCIVLADADLDNAVEFAHHGVFYHQGQCCIAASRIFVEESIYDEFVRRSVERAKKYILGNPLTPGVTQGPQIDKEQYDKILDLIESGKKEGAKLECGGGPWGNKGYFVQPTVFSNVTDEMRIAKEEIFGPVQQIMKFKSLDDVIKRANNTFYGLSAGVFTKDIDKAITISSALQAGTVWVNCYGVVSAQCPFGGFKMSGNGRELGEYGFHEYTEVKTVTVKISQKNS

B2: GOT2, the mitochondrial isoform of glutamic-oxaloacetic transaminase (enzyme, UniProt P00505 30-430)
chain: SSWWTHVEMGPPDPILGVTEAFKRDTNSKKMNLGVGAYRDDNGKPYVLPSVRKAEAQIAAKNLDKEYLPIGGLAEFCKASAELALGENSEVLKSGRFVTVQTISGTGALRIGASFLQRFFKFSRDVFLPKPTWGNHTPIFRDAGMQLQGYRYYDPKTCGFDFTGAVEDISKIPEQSVLLLHACAHNPTGVDPRPEQWKEIATVVKKRNLFAFFDMAYQGFASGDGDKDAWAVRHFIEQGINVCLCQSYAKNMGLYGERVGAFTMVCKDADEAKRVESQLKILIRPMYSNPPLNGARIAAAILNTPDLRKQWLQEVKVMADRIIGMRTQLVSNLKKEGSTHNWQHITDQIGMFCFTGLKPEQVERLIKEFSIYMTKDGRISVAGVTSSNVGYLAHAIHQVTK
binding [4]: binds

binding [1]: no binding
binding [2]: binds
B3: NDUFAF5 (protein, UniProt Q5TEU4 37-345)
chain: GSTSPRTLNIFDRDLKRKQKNWAARQPEPTKFDYLKEEVGSRIADRVYDIPRNFPLALDLGCGRGYIAQYLNKETIGKFFQADIAENALKNSSETEIPTVSVLADEEFLPFKENTFDLVVSSLSLHWVNDLPRALEQIHYILKPDGVFIGAMFGGDTLYELRCSLQLAETEREGGFSPHISPFTAVNDLGHLLGRAGFNTLTVDTDEIQVNYPGMFELMEDLQGMGESNCAWNRKALLHRDTMLAAAAVYREMYRNEDGSVPATYQIYYMIGWKYHESQARPAERGSATVSFGELGKINNLMPPGKKSQ

binding [1]: no binding
binding [2]: binds
B4: LYRM7 (protein, UniProt Q5U5X0 1-104)
chain: MGRAVKVLQLFKTLHRTRQQVFKNDARALEAARIKINEEFKNNKSETSSKKIEELMKIGSDVELLLRTSVIQGIHTDHNTLKLVPRKDLLVENVPYCDAPTQKQ

binding [1]: no binding
binding [2]: binds
B5: COQ7 (protein, UniProt Q99807 36-217)
chain: SSGMTLDNISRAAVDRIIRVDHAGEYGANRIYAGQMAVLGRTSVGPVIQKMWDQEKDHLKKFNELMVTFRVRPTVLMPLWNVLGFALGAGTALLGKEGAMACTVAVEESIAHHYNNQIRTLMEEDPEKYEELLQLIKKFRDEELEHHDIGLDHDAELAPAYAVLKSIIQAGCRVAIYLSERL

binding [1]: no binding
binding [2]: binds
B6: COX20 (protein, UniProt Q5RI15 1-118)
chain: MAAPPEPGEPEERKSLKLLGFLDVENTPCARHSILYGSLGSVVAGFGHFLFTSRIRRSCDVGVGGFILVTLGCWFHCRYNYAKQRIQERIAREEIKKKILYEGTHLDPERKHNGSSSN

binding [1]: no binding
binding [2]: binds
B7: ATP5IF1 (protein, UniProt Q9UII2 26-106)
chain: GSDQSENVDRGAGSIREAGGAFGKREQAEEERYFRAQSREQLAALKKHHEEEIVHHKKEIERLQKEIERHKQKIKMLKHDD

binding [1]: no binding
binding [2]: binds
B8: SDHD (protein, UniProt O14521 57-159)
chain: SGSKAASLHWTSERVVSVLLLGLLPAAYLNPCSAMDYSLAAALTLHGHWGLGQVVTDYVHGDALQKAAKAGLLALSALTFAGLCYFNYHDVGICKAVAMLWKL
